According to PubChem BioAssay AID493014 (National Center for Advancing Translational Sciences (NCATS), 2011):
This is one part of the list. Shown are side measurements of this screen, not its main read-out; they come without a call. Compounds called inactive in the main read-out are mostly missing here. Words in brackets tell the shape of the fitted curve; partial curves, single points and poor fits give uncertain potencies.

Assay: qHTS Assay to Find Inhibitors of Chronic Active B-Cell Receptor Signaling
Conditions: ABC-DLBCL IkBa-CBG/CBR reporter, luminescence ratio (green luciferase fused to IkBa over red control in TMD8 lymphoma cells), 4 h
Summary of the method: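 Concentration-response series (up to 46 uM) were applied to TMD8 dual-reporter cells for 4 h at 37C with doxycycline. Green/red ratio, after filter-overlap correction, defined %Activity; red signal alone was normalised to basal cells and zero luminescence.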

[1] = measured here: CBR red luminescence, cell number
[2] = measured here: IkBa-CBG green luminescence

For `O=C(NCc1ccccc1)C1CCCN(C(=O)Nc2ccccc2)C1` (stereo not given), the AC50 [1] was 23.1 µM [falling, single point].

In the case of `COc1ccc2c(COC(=O)c3n[nH]c4ccccc34)cc(=O)oc2c1`, the AC50 [1] was 0.146 µM [falling, full curve, poor fit].

With `COc1cccc(Nc2nc(N)nc(C(F)(F)F)n2)c1` the AC50 [1] was 2.24 µM [rising, partial curve, poor fit].

For `O=C(O)CCC(=O)NCc1ccc2[nH]c3c(c2c1)CCCC3`, the AC50 [1] was 13 µM [falling, partial curve].

In the case of `Cc1ccc(-n2cc(CN(C)CCc3cn[nH]c3)c(-c3cccc(C)c3)n2)cc1`, the AC50 [1] was 2.51 µM [rising, full curve, poor fit].

In the case of `Cc1cc(=O)[nH]c(N=N/C(=N/Nc2ccc(O)cc2)c2ccccc2)n1`, the AC50 [1] was 10.3 µM [falling, single point] and the AC50 [2] was 0.291 µM [rising, partial curve, poor fit].

With `Cc1nc(SCC(=O)N(CC(C)C)C2CCS(=O)(=O)C2)c2ccccc2n1` (stereo not given) the AC50 [1] was 20.6 µM [falling, partial curve].

For `Cc1cccc(NC(=O)/C(C#N)=C/c2cn(CC(=O)NCc3ccco3)c3ccccc23)c1C`, the AC50 [1] was 29.1 µM [rising, single point].

In the case of `O=C(Nc1cnc2ccccc2c1)N1CCCCC1`, the AC50 [1] was 17.8 µM [falling, single point].

With `NC(=O)C1CCN(c2nc(-c3ccc(Br)cc3)cs2)CC1` the AC50 [1] was 32.6 µM [falling, partial curve, poor fit].

For `CCc1ccn2cc(-c3ccc4c(c3)OCO4)nc2c1`, the AC50 [1] was 10 µM [falling, partial curve].

With `CSc1ccccc1NC(=O)c1ccc(Cl)s1` the AC50 [1] was 29.1 µM [falling, single point].

For `O=C(CN1C(=O)NC2(CCc3ccccc32)C1=O)NCC(=O)Nc1ccc(F)cc1` (stereo not given), the AC50 [1] was 14.6 µM [rising, partial curve, poor fit].

For `CCSc1nc(=S)cc(C)[nH]1`, the AC50 [1] was 15.8 µM [rising, partial curve, poor fit] and the AC50 [2] was 12.6 µM [falling, partial curve, poor fit].

With `CSc1nc(N)n2nc(-c3ccc(Cl)cc3)cc2n1` the AC50 [1] was 1.41 µM [falling, full curve].

With `C=CCNC(=O)/C(C#N)=C/c1ccccc1OCc1ccc(C(=O)OC)cc1` the AC50 [1] was 14.6 µM [falling, partial curve] and the AC50 [2] was 32.6 µM [falling, partial curve, poor fit].

For `CCCn1nnnc1SCC(=O)N1CCOCC1`, the AC50 [1] was 0.631 µM [rising, partial curve, poor fit].

With `Cc1ccc([N+](=O)[O-])cc1NC(=O)c1ccc(-c2ccccc2)cc1` the AC50 [1] was 4.11 µM [rising, single point].

In the case of `Cc1ccc(-c2cc(-c3ccccc3)nc(NN)n2)cc1`, the AC50 [1] was 17.8 µM [falling, single point].

For `COc1cc(-c2noc(C)c2C#CC2(N)CCCCC2)cc(OC)c1OC`, the AC50 [1] was 12.6 µM [falling, single point] and the AC50 [2] was 22.4 µM [rising, partial curve, poor fit].

With `COc1ccc(C2=C(C#N)C(=O)OC2)cc1` the AC50 [1] was 1.12 µM [rising, full curve, poor fit].

For `CC1CN(CCCCSc2ccccc2)CC(C)O1` (stereo not given), the AC50 [1] was 10 µM [rising, partial curve, poor fit].

For `COC(=O)c1ccc2c(c1)N(C)C(=O)CS2`, the AC50 [1] was 5.8 µM [rising, single point].

In the case of `S=c1[nH]nc(/C=C/c2ccccc2)o1`, the AC50 [1] was 35.5 µM [falling, single point].

With `O=C(NNc1nc(-c2ccccc2)cs1)c1cccs1` the AC50 [1] was 14.1 µM [falling, single point].

For `CC(=O)Nc1ccc(S(=O)(=O)NCCC(=O)OCc2nnc(-c3ccccc3)o2)cc1`, the AC50 [1] was 14.6 µM [rising, partial curve].

For `CCCCc1cc(=O)oc2cc(C)cc(OCC(=O)NCc3ccccn3)c12`, the AC50 [1] was 35.5 µM [falling, single point].

For `CSCCC(NC(=O)c1ccco1)C(=O)Nc1cc(C)ccn1` (stereo not given), the AC50 [1] was 25.9 µM [rising, single point].

With `COc1cccc(C(=O)NCC(c2cccs2)N2CCOCC2)c1` (stereo not given) the AC50 [1] was 25.9 µM [falling, single point].

With `CC1CCCN(c2sc(S(C)(=O)=O)nc2S(=O)(=O)c2ccc(Cl)cc2)C1` (stereo not given) the AC50 [1] was 11.2 µM [falling, partial curve].

With `Clc1c(CSc2nc3ccccc3o2)nc2ccccn12` the AC50 [1] was 0.651 µM [rising, full curve, poor fit].

In the case of `CCCc1nn(C)c2c(=O)[nH]c(-c3cc(S(=O)(=O)N4CCN(C)CC4)ccc3OCC)nc12`, the AC50 [1] was 0.708 µM [falling, full curve, poor fit].

With `CC(C)c1ccc(/C=C2\SC(=S)N(CCC(=O)N3CCCCC3CCO)C2=O)cc1` (stereo not given) the AC50 [1] was 1.12 µM [falling, full curve].

For `COc1ccc(CCC(C)N2CCc3ccccc3C2)cc1` (stereo not given), the AC50 [1] was 20 µM [rising, partial curve, poor fit].

For `Cc1cccn2c(=O)c3cc(C(=O)NC4CCCCCC4)sc3nc12`, the AC50 [1] was 6.31 µM [rising, single point].

For `CC(=O)Nc1ccc(C(=O)CN2C(=O)NC3(CCOc4ccccc43)C2=O)c(F)c1` (stereo not given), the AC50 [1] was 1.46 µM [rising, full curve, poor fit].

In the case of `CCC(=O)Nc1ccc(C(=O)OCc2ccccc2)cc1`, the AC50 [1] was 35.5 µM [rising, single point].

With `COc1cccc(C(=O)Nc2ccc(N3CCN(C(=O)c4ccco4)CC3)cc2)c1` the AC50 [1] was 35.5 µM [falling, single point].

With `O=C(c1ccc2c(=O)n(Cc3ccc(Cl)cc3)c(=S)[nH]c2c1)N1CCOCC1` the AC50 [1] was 17.8 µM [falling, single point].

In the case of `CC(=NNC(=O)c1ccc(NS(=O)(=O)c2cccs2)cc1)c1ccc(OCC(N)=O)cc1`, the AC50 [1] was 18.4 µM [falling, single point].

With `CCOc1ccc(NC(=S)N2CCCN(Cc3cccc(Cl)c3)C2)cc1` the AC50 [1] was 35.5 µM [falling, single point].
